In PubChem BioAssay AID2289 (National Center for Advancing Translational Sciences (NCATS), 2010):
The list shows a part of the results, in another mix than the full data. Results filed as inconclusive are left out. Active and inactive are the calls of the source. Calls follow the shape of the dose curve; as a rule, active = well fitted inhibition curve with a large enough effect; inconclusive = small, poorly fitted or top-dose-only effect, or effect the other way; inactive = flat fitted curve, though single readings scatter.

Test: qHTS Assay for Modulators of miRNAs and/or Inhibitors of miR-21; also: nearly all actives have a fitted effect of over 55% in size
Settings: HeLa miR-21-FLuc reporter, luciferase luminescence, 48 h; actives lower the signal
Excerpt: MLSCN Grant: 1 R21 NS059478-01 Assay Provider: Qihong Huang, The Wistar Institute NCGC Assay Overview: MicroRNAs (miRNAs) are endogenously encoded small (~20-25 nucleotides), nonprotein-coding RNAs that are involved in post-transcriptional repression of target messenger RNAs (mRNAs) (Le and Hannon, 2004). Estimated to be involved in the regulation of 30% of all protein-coding mRNAs (Filipowicz et al., 2008), miRNAs play a significant role in many biological processes including cellular differentiation and tissue development (Ghildiyal and Zamore, 2009).
NCGC Assay Protocol Summary: Reagents: HeLa cells stably expressing firefly luciferase (FLuc) under the control of a CMV promoter (upstream) and a miR-21 binding sequence directly downstream of the gene. These cells endogenously express miR-21. Control compounds used were compound C3 (provided by collaborator), N6-phenyladenosine (MP Biomedicals, 0215379625), and DMSO. Assay Summary: 6uL of HeLa miR-21-FLuc cells in assay buffer (DMEM, Invitrogen #21063-029; 10% FBS, HyClone #SH30071.03) were dispensed at 2000cells/well (3.3 x 10^5 cells/mL) into Greiner solid-white TC-treated 1536-well plates using a Multidrop Combi (Thermo Fisher Scientific). […] After a 15 minute incubation to allow for cell lysis, luciferase activity was measured using a ViewLux CCD imager (PerkinElmer), with an average exposure time of 2-12 seconds. […]
Potency is read from the fitted curve at half-maximal effect.

Compound | Potency
Cc1cc(=O)oc2cc(OCc3ccccc3)ccc12 | active: 1850 nM
